From patent EP0395417 (dated 1995) come the findings set out here.

Where no end group is shown, it is not given here. [ ]: non-standard residue; d: D form.

The nature of this data set: Boc solid-phase peptide synthesis; Benzhydrylamine-polystyrene resin; diisopropylcarbodiimide. Particulars: whole synthesis, scale 0.5 mmole.

The substance [dF]FF[dW]KTFT-NH2 yielded an isolated mass of 65 mg.
